## Screening data, single-dose tests

From ChEMBL document CHEMBL3988442, “University of Dundee, Small-Polar-MMV Screening Library” (2021).

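Growth of Mycobacterium tuberculosis over 3 days (7H9 medium with glucose and tyloxapol); the read-out is not stated. Compounds at 500 µM. Higher reads as more growth inhibition (inferred: compounds with an IC50 in retests scored well above the rest). Size under these conditions: about 18,000 compounds, about 1,400 of them at 50% or above in at least one test.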

Results are given as percent effect.
How 0% and 100% were set is not recorded. Most values in the screen are low, and negative values occur.
The compounds are a random part of those screened.

SMILES | effect
OC(CNc1ncc(Cl)cc1F)CN1CCOCC1 (centres undefined) | -5.983%
CN(CC1COc2ccccc2O1)C(=O)C1CCC1 (centres undefined) | 88.23%
O=C1NC[C@@H]2[C@H]1CCCN2C(=O)c1cc(C2CC2)on1 | 7.662%
CC(C)Nc1ccc(F)cc1OCCO | 18.69%
OCCN(c1ncc(Cl)cn1)C1CC1 | 49.88%
CCc1noc(CN2CCSCC2)n1 | 13.75%
CCOc1ccc(C(=O)n2cnnc2N)cc1 | -0.235%
CC(O)CNC(=O)C1CCNCC1 (centres undefined) | -1.056%
CN(C)c1cc(CNC(=O)c2nccnc2N)ccn1 | -9.909%
CN(CCCc1ccccc1)CC(=O)NCCC#N | 18.35%
CC(C)(C)CN(CCC#N)CC(=O)N1CCNC1=O | 0.2019%
CNC(=O)C1CN(CCc2cccs2)CCO1 (centres undefined) | 24.81%
NC(=O)CCNCc1ccc(Cl)c2cccnc12 | -1.644%
NCCNC(=O)CCCc1ccccc1 | 12.14%
CC(C)(C)CCOc1cnccc1CN | -9.27%
CCOc1ccc(C(=O)N2CCCC(C(N)=O)C2)cn1 (centres undefined) | 24.88%
CC1c2ccsc2CCN1CCS(C)(=O)=O (centres undefined) | 25.17%
Cc1ccc(C(C)NC(=O)c2cnsn2)o1 (centres undefined) | 0.1652%
CC(C)[C@H](N)C(=O)N1CCN(C2CC2)C(=O)C1 | 2.876%
CN1CCc2ccc(NC(=O)N3CCCC3)cc2C1=O | -11.34%
Cn1ccsc1=NC(=O)c1cc(O)nc2ccccc12 | -17.92%
Cc1ccc(C(=O)NCCNC(=O)c2ccco2)cc1 | 46.97%
NS(=O)(=O)c1ccc(O)c(F)c1 | 7.147%
NCC(O)c1ccc(Cl)c(Cl)c1 (centres undefined) | 76.48%
COc1cccc(S(=O)(=O)NCCc2noc(C)n2)c1 | 29.76%
N#Cc1ccnc(SCc2ccncc2)c1 | -51.57%
CSc1ncc(CN2C[C@@H]3CCC[C@H](C2)C(=O)N3)cn1 | 36.54%
CSCCN(C)c1cc([C@H]2C[C@@H](N)C2)nc(N)n1 | 19.55%
CC(N)C(=O)Nc1ccc(Cl)cc1 (centres undefined) | 24.08%
COCCn1c(SCC(=O)NC(N)=O)nc(C)c1C | 13.18%
NC(=O)c1ccc(CNC(=O)CCc2ccccc2)o1 | 9.586%
COc1cccc(C2CNCCO2)c1 (centres undefined) | 28.81%
CN1CCN(C(=O)CNS(=O)(=O)c2ccccc2)CC1 | 1.033%
CC(NS(=O)(=O)c1cnn(C)c1)c1ccncc1 (centres undefined) | -29.19%
NC(=O)CN1CCC(c2nc(C3CCOC3)no2)CC1 (centres undefined) | 4.757%
N[C@H]1CCN(S(=O)(=O)c2ccc(F)c(C(F)(F)F)c2)C1 | 65.03%
CCN(Cc1ccn(CC)n1)[C@H]1COC[C@@H]1O | 11.17%
CCOCCC(=O)N1CCC2(CCCN(C)C2=O)C1 (centres undefined) | 5.726%
COCCNc1ccc(C#N)cc1 | 49.74%
Cc1cccc2[nH]cc(CO)c12 | 24.07%
COc1cc(CNC(=O)c2[nH]nc(C)c2Br)ccc1O | 4.282%
Cn1nc(C(=O)N2CCCC2c2ccco2)ccc1=O (centres undefined) | -12.49%
CNC1CCCN(Cc2noc(C)n2)C1 (centres undefined) | 7.886%
O=C(CSc1nnnn1Cc1cccs1)NC1CC1 | 67.1%
Nc1noc(CCNC(=O)c2ccc(Cl)cn2)n1 | 43.47%
O=C(CNC(=O)c1cc(F)cc(F)c1)Nc1cnns1 | -5.418%
Nc1ccn(CCCN2CCCC2)n1 | -0.8123%
CN1CC2(CCN(Cc3nccs3)CC2)OC1=O | 11.99%
OCCOCCNCc1ccc(-c2ccc(F)cc2)o1 | 56.12%
Cc1ccc(CCCC(=O)Nc2nnc[nH]2)cc1 | -7.553%
CCc1noc(C)c1C(=O)N1CCCN(C)CC1 | 3.69%
O=C(COc1ccccc1)N[C@H]1C[C@@H]2OCC[C@H]12 | 38.22%
Cc1ncccc1C(=O)NCCc1ccnn1C | -15.39%
Cc1ccccc1CC(=O)NCCC1CCNC1 (centres undefined) | -4.549%
Cc1ccc(Cl)c(NC(=O)NCCNC(=O)N(C)C)c1 | 9.034%
NC(=O)CCc1csc(N)n1 | 10.37%
NS(=O)(=O)N1CCN(CC=Cc2ccc(F)cc2)CC1 | 52.88%
COCC(C)NC(=O)NCc1ccc(F)cc1 (centres undefined) | 19.02%
CC(Cn1ccnc1)NC(=O)NCc1cccnc1 (centres undefined) | 1.366%
O=C(Nc1cccc(F)c1)C1CCCN1 (centres undefined) | 23.5%
CN(C)CC1CNCCO1 (centres undefined) | 3.902%
CN(C)S(=O)(=O)c1cc2c(cc1Cl)OCCO2 | 58.97%
CCOC1CCCN(CCC(=O)NC)C1 (centres undefined) | 2.543%
COCC(=O)N1CCCn2ccnc2C1C1CCCC1 (centres undefined) | 1.868%
Cc1nc(=N)cc[nH]1 | -5.978%
COCCNC(=O)C(C)N(C)CC(C)C (centres undefined) | -4.906%
Cc1ccc(F)cc1CC(=O)N1CC[C@H](O)[C@@H](O)C1 | 5.444%
C1CC(N2CCOCC2)CN1 (centres undefined) | 0.153%
COCCn1cc(CN)cn1 | -5.847%
COc1ccc(CNCCn2cccn2)cc1F | 31.83%
CC(C)N1CCC(NC(=O)C(C)(C)C)CC1 | 6.004%
CC(=O)c1csc(C(=O)N2CCCC2C(C)(C)O)c1 (centres undefined) | 35.38%
CCCn1nnc(NCc2ccc(OC)cc2)n1 | 87.51%
Cc1csc(NC(=O)CSCc2nnc(C)o2)n1 | -9.767%
O=S1(=O)C[C@H]2CNC[C@@H](C1)[C@@H]2O | -5.152%
CC(NC(=O)NC1CCN(C)CC1)c1ccncc1F (centres undefined) | 1.884%
CCC[C@H]1CN(C(=O)c2csc(NC)n2)C[C@@H]1N | -0.6488%
Cc1ncsc1CCNC(=O)[C@@H](N)C(C)(C)C | 3.243%
NC(=O)C1CCN(CC(O)COc2ccccc2)CC1 (centres undefined) | 20.99%
CC(C)CN1C(=O)c2cccn2CC1CN (centres undefined) | 34.03%
CCCOc1cc(CNC(=O)c2nccn2C)ccn1 | 60.31%
COc1ccc(NC(C(N)=O)c2ccc(Br)cc2)cn1 (centres undefined) | 53.44%
Cc1nc(CC(=O)NC(C)CCn2cccn2)cs1 (centres undefined) | 15.54%
CNC(=O)Cc1noc(Cc2ccc(O)cc2Cl)n1 | -2.538%
Cc1ccc(C(C)NC(=O)Cn2ccccc2=O)o1 (centres undefined) | 12.85%
O=C(NCCN1CCC(O)CC1)c1cncc(Cl)c1 | -7.857%
CN(CC1CC(O)C1)C(=O)c1ccc2ccccc2n1 (centres undefined) | 19.04%
CC(CNC(=O)c1cccc(F)c1)N1CCN(C)CC1 (centres undefined) | 11.47%
Cc1cc(N)n(CC(=O)N2CCOC(CCN)C2)n1 (centres undefined) | 12.63%
CCCC(NC(=O)c1cnc(O)cn1)c1nccn1C (centres undefined) | -15.6%
COc1ccc(S(=O)(=O)Nc2cc(C)ccn2)cc1 | -3.636%
Nc1ccc(C(=O)N2C[C@H](O)[C@@H](N3CCCC3)C2)cn1 | -3.855%
Cn1cccc(NC(=O)c2ccc(Br)cc2F)c1=O | 5.19%

Some entries from above, unchanged:

SMILES,effect
CC(NC(=O)NC1CCN(C)CC1)c1ccncc1F (centres undefined),1.884%
CNC(=O)Cc1noc(Cc2ccc(O)cc2Cl)n1,-2.538%
COc1cccc(S(=O)(=O)NCCc2noc(C)n2)c1,29.76%
COc1cccc(C2CNCCO2)c1 (centres undefined),28.81%
CC(C)(C)CN(CCC#N)CC(=O)N1CCNC1=O,0.2019%
Nc1ccc(C(=O)N2C[C@H](O)[C@@H](N3CCCC3)C2)cn1,-3.855%
NCCNC(=O)CCCc1ccccc1,12.14%
COCC(C)NC(=O)NCc1ccc(F)cc1 (centres undefined),19.02%
CCOc1ccc(C(=O)n2cnnc2N)cc1,-0.235%
CC(N)C(=O)Nc1ccc(Cl)cc1 (centres undefined),24.08%
O=C(CSc1nnnn1Cc1cccs1)NC1CC1,67.1%
CC1c2ccsc2CCN1CCS(C)(=O)=O (centres undefined),25.17%